Results are given in words; binding and its absence hold for the method and conditions named.
Tests used:
Experiment in all cases: SEC; calibrated Superdex 200 10/300 GL, 50 mM Tris–HCl (pH 8.0), 150 mM sodium chloride; β-ME during lysis and IMAC or a reducing agent during SEC; each IgAse construct alone; both purified
[1] = molecular target: IgAse1–4 + E540A (Thomasclavelia ramosa) (UniProt Q9AES2)
[2] = molecular target: IgAse1–3 + E540A (Thomasclavelia ramosa) (UniProt Q9AES2)
[3] = molecular target: IgAse2–4 + E540A (Thomasclavelia ramosa) (UniProt Q9AES2)
[4] = molecular target: IgAse1 (Thomasclavelia ramosa) (UniProt Q9AES2)
[5] = molecular target: IgAse1–7 + E540A (Thomasclavelia ramosa) (UniProt Q9AES2)

IgAse1–4 + E540A (from UniProt Q9AES2 31-876) (domain or fragment)
binding [1]: no binding

IgAse1–3 + E540A (from UniProt Q9AES2 31-807) (domain or fragment)
binding [2]: no binding

IgAse2–4 + E540A (from UniProt Q9AES2 328-876) (domain or fragment)
binding [3]: no binding

IgAse1 (from UniProt Q9AES2 31-319) (domain or fragment)
binding [4]: no binding

B1: IgAse1–7 + E540A (domain or fragment, UniProt Q9AES2 31-1166)
chain: MASKPDIKVGDYVKMGVYNNASILWRCVSIDNNGPLMLADKIVDTLAYDAKTNDNSNSKSHSRSYKRDDYGSNYWKDSNMRSWLNSTAAEGKVDWLCGNPPKDGYVSGVGAYNEKAGFLNAFSKSEIAAMKTVTQRSLVSHPEYNKGIVDGDANSDLLYYTDISEAVANYDSSYFETTTEKVFLLDVKQANAVWKNLKGYYVAYNNDGMAWPYWLRTPVTDCNHDMRYISSSGQVGRYAPWYSDLGVRPAFYLDSEYFVTTSGSGSQSSPYIGSAPNKQEDDYTISEPAEDANPDWNVSTEQSIQLTLGPWYSNDGKYSNPTIPVYTIQKTRSDTENMVVVVCGEGYTKSQQGKFINDVKRLWQDAMKYEPYRSYADRFNVYALCTASESTFDNGGSTFFDVIVDKYNSPVISNNLHGSQWKNHIFERCIGPEFIEKIHDAHIKKKCDPNTIPSGSEYEPYYYVHDYIAQFAMVVNTKSDFGGAYNNREYGFHYFISPSDSYRASKTFAHAFGHGLLGLGDEYSNGYLLDDKELKSLNLSSVEDPEKIKWRQLLGFRNTYTCRNAYGSKMLVSSYECIMRDTNYQFCEVCRLQGFKRMSQLVKDVDLYVATPEVKEYTGAYSKPSDFTDLETSSYYNYTYNRNDRLLSGNSKSRFNTNMNGKKIELRTVIQNISDKNARQLKFKMWIKHSDGSVATDSSGNPLQTVQTFDIPVWNDKANFWPLGALDHIKSDFNSGLKSCSLIYQIPSDAQLKSGDTVAFQVLDENGNVLADDNTETQRYTTVSIQYKFEDGSEIPNTAGGTFTVPYGTKLDLTPAKTLYDYEFIKVDGLNKPIVSDGTVVTYYYKNKNEEHTHNLTLVAAKAATCTTAGNSAYYTCDGCDKWFADATGSVEITDKTSVKIPAPGHTAGTEWKSDDTNHWHECTVAGCGVIIESTKSAHTAGEWIVDTPATATTAGTKHKECTVCHRVLETQPIPSTGTELKIIAGDNQIYNKASGSDVTITCNGDFAKFTGIKVDGSVVDSSNYTAVSGSTVLTLKASYLGTLTDGSHTITFVYTDGEANANLTVRTAGSGHIHDYGTEWKSNADNHWHECNCGDKKDEAAHSFKWVVDKEATATKKGSKHEECKICGYKRSAVEI
binding [5]: no binding

— PMC12237041
